Results taken from PubChem BioAssay AID493014 (National Center for Advancing Translational Sciences (NCATS), 2011).
Several values for one entry are separate records, joined by “and”; a condition that tells them apart may be missing. Equal entries are not always repeated. Some of the results follow. Shown are side measurements of this screen, not its main read-out; they come without a call. Most of these compounds were active or inconclusive in the main read-out, so they are no random draw. Words in brackets tell the shape of the fitted curve; partial curves, single points and poor fits give uncertain potencies.

Assay: qHTS Assay to Find Inhibitors of Chronic Active B-Cell Receptor Signaling
Settings: ABC-DLBCL IkBa-CBG/CBR reporter, luminescence ratio (green luciferase fused to IkBa over red control in TMD8 lymphoma cells), 4 h
Summary of the method: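 Cell line TMD8 (human ABC DLBCL), stably expressing tet-inducible CBG68-IkBa fusion and CBR; IMDM/0.5% FBS; cpd up to 46 uM; dox induction, 4 h, 37C/5% CO2; dual luminescence; green/red ratio; MG132 control.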

[1] = measured here: CBR red luminescence, cell number
[2] = measured here: IkBa-CBG green luminescence

Row | SMILES | AC50 [1] | AC50 [2]
1 | COC(=O)C1=NN(C(=O)c2ccccc2)C(O)(c2ccc([N+](=O)[O-])cc2)C1 (stereo unspecified) | 11.2 µM [falling, partial curve, poor fit] | 
2 | Cc1cccc(NC(=O)c2cc(-c3cc(C)cc(C)c3O)n[nH]2)c1 | 1.41 µM [falling, partial curve, poor fit] | 
3 | CC(=O)CCc1ccc(OCCCCN2CCC(Cc3ccccc3)CC2)cc1 | 35.5 µM [falling, single point] | 
4 | CC(C)(C)OC(=O)NCCCCCc1nnc(SCC(N)=O)o1 | 3.55 µM [rising, single point] | 
5 | OCC1(CCOc2ccccc2)CCN(C2Cc3ccccc3C2)CC1 | 3.16 µM [rising, full curve, poor fit] | 
6 | COc1ccccc1OCCNC(=O)c1ccc(C)c(S(=O)(=O)N2CCOCC2)c1 | 29.1 µM [falling, single point] | 
7 | COc1c(Cl)ccc(Cl)c1C(=O)OCC(=O)O | 35.5 µM [rising, single point] | 
8 | CCCCN(CC)CCNC(=O)Cn1cc2c(n1)-c1c(oc(C(=O)N3CCCC3)c1C)CC2 | 7.08 µM [falling, full curve, poor fit] | 
9 | O=C(Nc1ccc(OC(F)F)cc1)c1cc(S(=O)(=O)N2CCOCC2)ccc1F | 20 µM [falling, partial curve, poor fit] | 
10 | O=c1[nH]c2cc3c(cc2cc1CN(Cc1cccs1)Cc1nnnn1Cc1ccco1)OCCO3 | 17.8 µM [falling, partial curve, poor fit] | 
11 | Cc1c(Cl)cccc1N/C(=N/S(=O)(=O)c1cccs1)c1ccccc1 | 35.5 µM [falling, single point] | 
12 | COc1ccc(/C=N/NC(=O)C(Cc2c[nH]c3ccccc23)NC(=O)OCC(C)C)cc1[N+](=O)[O-] (stereo unspecified) | 15.8 µM [rising, partial curve, poor fit] | 
13 | CCOc1ccc(C(=O)Nc2cccc(C(=O)O)c2)cc1Cl | 11.2 µM [falling, partial curve] | 
14 | Cc1ccc(NC(=O)Nc2nnc(-c3ccccc3F)s2)cc1 | 10 µM [rising, partial curve] | 
15 | COc1ccc(C2=Nn3c(nnc3-c3ccccc3OC)SC2)cc1OC | 3.26 µM [rising, full curve] and 1.41 µM [rising, full curve] | 3.66 µM [falling, full curve] and 1.26 µM [falling, full curve]
16 | C[C@@]12C(=O)N(Cc3ccccc3)CC(=O)N1[C@H]1c3cc(Cl)ccc3OC[C@@H]1[C@@H]2c1ccccc1 | 3.66 µM [falling, full curve] | 
17 | Cc1ccc(NC(=O)CN2C(=O)NC(Cc3c[nH]c4ccccc34)C2=O)cc1S(=O)(=O)N1CCCCC1 (stereo unspecified) | 25.9 µM [falling, single point] | 
18 | O=c1c(Cc2ccccc2O)c(O)nc2n1CCCS2 | 8.2 µM [falling, partial curve, poor fit] | 
19 | Cc1cncn1CCc1nc2c3ccccc3nc(SCC(=O)Nc3cccc(Cl)c3)n2n1 | 29.1 µM [falling, single point] and 17.8 µM [falling, single point] | 
20 | CCCOc1ccc(N2C(=O)CC(N(Cc3ccco3)C(=O)CCC(=O)O)C2=O)cc1 (stereo unspecified) | 3.55 µM [falling, partial curve] | 

Of the compounds above, these contain a Cl atom:
Row | SMILES | AC50 [1] | AC50 [2]
7 | COc1c(Cl)ccc(Cl)c1C(=O)OCC(=O)O | 35.5 µM [rising, single point] | 
11 | Cc1c(Cl)cccc1N/C(=N/S(=O)(=O)c1cccs1)c1ccccc1 | 35.5 µM [falling, single point] | 
13 | CCOc1ccc(C(=O)Nc2cccc(C(=O)O)c2)cc1Cl | 11.2 µM [falling, partial curve] | 
16 | C[C@@]12C(=O)N(Cc3ccccc3)CC(=O)N1[C@H]1c3cc(Cl)ccc3OC[C@@H]1[C@@H]2c1ccccc1 | 3.66 µM [falling, full curve] | 
19 | Cc1cncn1CCc1nc2c3ccccc3nc(SCC(=O)Nc3cccc(Cl)c3)n2n1 | 29.1 µM [falling, single point] and 17.8 µM [falling, single point] | 

Next part:

Row | SMILES | AC50 [1] | AC50 [2]
21 | Cc1nc(SCC(=O)Nc2ccccc2Cl)oc1C | 2.82 µM [falling, partial curve, poor fit] | 
22 | CCc1nnc(NC(=O)CSc2nnc(-c3ccoc3C)n2-c2ccc(C)cc2)s1 | 16.4 µM [falling, single point] | 
23 | Cc1cccn2cc(CSc3nnc(Nc4ccc(C(C)C)cc4)s3)nc12 | 0.651 µM [rising, full curve] | 
24 | COc1ccccc1C(=O)N(Cc1ccco1)C1CCS(=O)(=O)C1 (stereo unspecified) | 0.231 µM [falling, full curve, poor fit] | 
25 | CCN1C(=O)/C(=C\N2CCN(c3cccc(Cl)c3)CC2)SC1=S | 35.5 µM [rising, single point] | 
26 | CCCOC(=O)Nc1sc2c(c1C(N)=O)CCCC2 | 17.8 µM [rising, partial curve, poor fit] | 
27 | O=C(O)/C=C/C(=O)Nc1ccc(-n2nccc2C(F)(F)F)cc1 | 3.98 µM [rising, single point] | 
28 | COc1ccc(-c2cn(-c3ccc(C)cc3C)c(=S)[nH]2)cc1OC | 1.26 µM [falling, full curve, poor fit] | 
29 | CCC(OC(=O)c1nsc(Cl)c1Cl)C(=O)NC(C)(C)CC (stereo unspecified) | 0.316 µM [falling, full curve, poor fit] | 
30 | COc1ccc(OC)c(NC(=O)c2c(NCc3cccs3)sc3c2CCCC3)c1 | 3.98 µM [rising, single point] | 
31 | C/C(CC(=O)Nc1cc(Cl)ccc1Cl)=N\NC(N)=S | 35.5 µM [rising, single point] | 35.5 µM [falling, single point]
32 | O=C(NCc1ccc(F)cc1)c1ccccc1OCc1ccccc1 | 0.58 µM [falling, full curve] | 
33 | COc1ccccc1OCCOc1ccc(/C=C2\C(=N)N3N=C(C)SC3=NC2=O)cc1 | 4.47 µM [rising, partial curve, poor fit] | 
34 | Cc1c(Cl)cccc1NC(=O)CNC(=O)c1ccccc1F | 6.51 µM [rising, single point] | 
35 | O=C(CCC(=O)N(CC(=O)NC1CCCCC1)c1ccccc1F)Nc1nccs1 | 3.55 µM [falling, full curve, poor fit] | 
36 | COc1ccc(N2CC(C(=O)N3CCC(c4nc5ccccc5[nH]4)CC3)CC2=O)cc1 (stereo unspecified) |  | 3.66 µM [falling, partial curve, poor fit]
37 | CCOc1cccc(/C=C/c2cc(C(=O)O)c3ccccc3n2)c1OC | 14.1 µM [falling, single point] | 
38 | CCCCCCCCCC(=O)OCC(O)CO (stereo unspecified) | 0.291 µM [rising, full curve, poor fit] | 
39 | CCn1cc(C(=O)NNC(=O)c2ccc(Cl)cc2)c(=O)c2ccc(C)nc21 | 3.98 µM [rising, full curve, poor fit] | 
